In patent publication EP1106702A1, “High-throughput screening of compounds using electrospray ionization mass spectrometry (ESI-MS)” (AGOURON PHARMACEUTICALS, INC., priority 1999, dated 2001):
At least one structure is not confirmed: it was looked up by name or label, or the drawing left a doubt.

Key:
[1] = system: 6:7 duplex; assay: ESI-MS monitoring of non-covalent small molecule:oligonucleotide complexes with DNA duplex; assay type: binding
Description: Regarding buffer concentration, the concentrations of ammonium acetate were varied to determine the effects of ionic strength on ligand binding. […] Of the intercalators, proflavin tolerated over 100 mM ammonium acetate with minimal shifting in binding. However, ethidium bromide and methyl green had almost 70% reduction in binding to DNA at only 33 mM ammonium acetate. The reduction in binding of ethidium bromide and methyl green at high salt concentrations is evidence of the electrostatic nature of the first step in binding in the intercalation of these compounds. Proflavin, which is […] at the test pH, should be less affected by an increase in competing counterions.
The general protocol for preparing the samples utilized in the present invention is as follows. Complementary single-stranded oligonucleotides are desalted, preferably via ammonium acetate precipitation. This DNA desalting procedure involves the following steps. First, the oligonucleotide is dissolved in approximately 100 µL of water. Next, about 500 µL of 10 M ammonium acetate is added. The solution is mixed and allowed to rest for about 5 minutes. From about 600 to about […] of cold ethanol (EtOH) is added and the solution is set in dry ice for about 25 minutes. The solution is then centrifuged for about 20 minutes. The supernatant is removed and saved and the preceding steps are repeated once. Subsequently, 1 ml of a 90:10 solution of EtOH and water are added and the solution is centrifuged for 5 minutes. This step is then repeated twice. The solution is then dried and rehydrated. Finally, OD readings are taken at 260 nanometers to ensure a 1:500 dilution.
(§1) The complementary oligonucleotide strands and corresponding oligonucleotide duplex are not critical to the invention. The duplex may comprise a DNA:DNA duplex, an RNA:RNA duplex or a DNA:RNA duplex. The DNA strands utilized herein are described in detail below. Once desalted, the complementary oligonucleotide strands are added in equimolar mixture in 50 mM ammonium acetate to make a […] duplex stock solution. The duplex stock solution is placed in a 60° C water bath for 10 minutes and then slowly cooled to room temperature. Test solutions are made by adding test compound (dissolved in methanol (MeOH)) to stock solution in a 2:1 water:isopropyl alcohol. Final concentrations of test compound and duplex are preferably 10 µM each. For example, 20 µL of the stock duplex solution is added to 80 µL of a 2:1 solution of water and IPA for a final volume of 100 µL and a final concentration of 10 µM duplex. The test compound is then added to the solution for a final concentration of 10 µM as well. One may subsequently dilute the test solution to test a range of test compound concentrations, from as low as 0.3 µM up to 10 µM.
(§2) Once the appropriate samples and solutions are prepared, one may proceed with the ESI-MS procedure. The general protocol for manual analysis is as follows. […] The spectra is then analyzed for the presence of bound test ligand. […] In order to ensure statistical accuracy, data are preferably summed, saved, and analyzed over a large numbers of scans, preferably 30 to 50 scans, more preferably 40 scans.
(§3) The oligonucleotides utilized in the examples herein were known to interact with a particular target(s) of interest. […] When the duplex solution was analyzed by ESI-MS, it was possible to see at least three charge stages of the duplex as well as some charge states of the two single strands. […]

[2] = system: ss DNA; assay: ESI-MS monitoring of ligand binding to the single strands in the duplex mixture; details: 10 µM duplex 6:7 mixture, increasing ligand concentration
Description: as §1, with “For example, 20 µL of the stock duplex solution is added to 80 µL of a 2:1 solution of water and IPA for a final volume of 100 µL and a final concentration of 10 µM duplex. The test compound is then added to the solution for a final concentration of 10 µM as well. One may subsequently dilute the test solution to test a range of test compound concentrations, from as low as 0.3 µM up to 10 µM.” left out
as §2, with “procedure.” for “procedure. The general protocol for manual analysis is as follows.”
as §3

CC[n+]1c(-c2ccccc2)c2cc(N)ccc2c2ccc(N)cc21 [ethidium bromide]
binding sites on the duplex as the concentration of intercalator was increased ([1]; 10 µM duplex 6:7): bind to multiple sites on the duplex | relative binding affinity to 6:7 duplex ([1]; 10 mM ammonium acetate): methyl green > ethidium bromide > proflavin | reduction in binding to DNA ([1]; 33 mM ammonium acetate, 10 µM 6:7 duplex and 10 µM sample): ~70% | binding affinity on increasing salt concentration ([1]; ammonium acetate increased from 10 µM to 50 mM): did not change | concentration at which initial binding was observed ([1]; duplex held constant at 10 µM, EtBr 0.1-33 µM): 3 µM | binding to single strand [2]: No binding to single strand was observed
